Source: the supplement of paper PMC10849652
The other results are listed elsewhere or left out.

Protein sequences, listed by entry. Tags and fused reporters are not part of them. Lines headed by an entry give the natural chain unless they say otherwise; changes in a name come on top.
UniProt Q86SF2: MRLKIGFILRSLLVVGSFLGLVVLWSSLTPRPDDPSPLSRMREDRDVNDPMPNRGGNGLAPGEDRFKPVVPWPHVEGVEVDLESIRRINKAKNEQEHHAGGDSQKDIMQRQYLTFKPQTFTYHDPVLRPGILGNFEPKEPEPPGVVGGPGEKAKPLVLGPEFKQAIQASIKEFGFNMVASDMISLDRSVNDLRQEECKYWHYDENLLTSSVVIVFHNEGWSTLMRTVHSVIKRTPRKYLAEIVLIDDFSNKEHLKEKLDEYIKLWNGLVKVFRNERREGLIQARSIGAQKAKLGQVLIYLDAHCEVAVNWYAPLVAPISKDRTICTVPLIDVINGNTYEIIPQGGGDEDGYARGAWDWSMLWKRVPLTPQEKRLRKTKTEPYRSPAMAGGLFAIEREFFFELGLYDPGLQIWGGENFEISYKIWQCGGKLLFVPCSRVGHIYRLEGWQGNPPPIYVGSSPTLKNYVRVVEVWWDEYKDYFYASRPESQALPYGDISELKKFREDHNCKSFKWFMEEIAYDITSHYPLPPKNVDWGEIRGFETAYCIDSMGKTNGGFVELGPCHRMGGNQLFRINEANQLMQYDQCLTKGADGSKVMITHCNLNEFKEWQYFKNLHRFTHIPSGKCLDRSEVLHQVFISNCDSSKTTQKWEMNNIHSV
UniProt Q9NZ52: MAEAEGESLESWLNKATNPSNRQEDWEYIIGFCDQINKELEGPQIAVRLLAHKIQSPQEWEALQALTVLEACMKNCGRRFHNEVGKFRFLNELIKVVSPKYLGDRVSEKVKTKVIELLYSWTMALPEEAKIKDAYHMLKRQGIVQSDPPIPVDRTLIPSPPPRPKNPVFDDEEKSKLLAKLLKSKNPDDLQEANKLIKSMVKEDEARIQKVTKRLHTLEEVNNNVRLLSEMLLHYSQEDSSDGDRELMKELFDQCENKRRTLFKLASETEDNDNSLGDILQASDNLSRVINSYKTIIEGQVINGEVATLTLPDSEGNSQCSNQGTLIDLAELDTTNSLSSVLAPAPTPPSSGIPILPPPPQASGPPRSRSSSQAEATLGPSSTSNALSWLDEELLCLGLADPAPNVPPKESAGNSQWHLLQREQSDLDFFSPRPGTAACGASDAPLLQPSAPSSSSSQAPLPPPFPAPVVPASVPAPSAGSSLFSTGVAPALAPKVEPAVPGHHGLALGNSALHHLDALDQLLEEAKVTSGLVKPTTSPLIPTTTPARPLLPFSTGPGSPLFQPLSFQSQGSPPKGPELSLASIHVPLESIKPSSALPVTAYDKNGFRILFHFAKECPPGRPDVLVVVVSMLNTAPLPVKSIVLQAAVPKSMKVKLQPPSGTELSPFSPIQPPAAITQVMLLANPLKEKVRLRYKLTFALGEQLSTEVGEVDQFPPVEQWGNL
UniProt P30047: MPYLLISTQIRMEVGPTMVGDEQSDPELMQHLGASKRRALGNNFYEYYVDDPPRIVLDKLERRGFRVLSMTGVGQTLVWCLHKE
UniProt P02794, whole entry, looked up: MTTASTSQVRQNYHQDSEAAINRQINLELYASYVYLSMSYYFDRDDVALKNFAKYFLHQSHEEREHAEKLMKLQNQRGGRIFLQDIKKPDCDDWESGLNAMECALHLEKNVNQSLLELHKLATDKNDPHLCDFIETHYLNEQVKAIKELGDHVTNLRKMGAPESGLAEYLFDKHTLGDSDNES
UniProt Q6NT46: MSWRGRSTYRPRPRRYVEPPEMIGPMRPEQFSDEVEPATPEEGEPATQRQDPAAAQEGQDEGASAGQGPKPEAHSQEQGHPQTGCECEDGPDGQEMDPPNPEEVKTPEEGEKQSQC
UniProt P51116, whole entry, looked up: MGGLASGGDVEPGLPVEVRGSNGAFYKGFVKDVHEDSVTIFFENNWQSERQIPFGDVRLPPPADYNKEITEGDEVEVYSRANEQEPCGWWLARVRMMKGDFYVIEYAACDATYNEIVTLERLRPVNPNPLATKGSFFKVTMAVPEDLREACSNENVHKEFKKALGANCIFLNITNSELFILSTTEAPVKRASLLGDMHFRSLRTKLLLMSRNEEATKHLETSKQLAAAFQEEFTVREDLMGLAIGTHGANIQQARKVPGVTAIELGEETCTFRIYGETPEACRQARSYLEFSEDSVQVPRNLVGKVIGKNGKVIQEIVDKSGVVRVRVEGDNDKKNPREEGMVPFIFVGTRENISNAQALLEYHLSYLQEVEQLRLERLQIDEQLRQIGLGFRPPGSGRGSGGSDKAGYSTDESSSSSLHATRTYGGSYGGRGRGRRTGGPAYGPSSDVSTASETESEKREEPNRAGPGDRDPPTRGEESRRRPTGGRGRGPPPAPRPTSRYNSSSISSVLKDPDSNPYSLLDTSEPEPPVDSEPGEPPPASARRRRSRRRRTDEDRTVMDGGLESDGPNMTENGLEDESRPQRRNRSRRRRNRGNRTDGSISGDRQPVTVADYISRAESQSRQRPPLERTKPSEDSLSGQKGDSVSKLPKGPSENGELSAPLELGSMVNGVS
UniProt O75223: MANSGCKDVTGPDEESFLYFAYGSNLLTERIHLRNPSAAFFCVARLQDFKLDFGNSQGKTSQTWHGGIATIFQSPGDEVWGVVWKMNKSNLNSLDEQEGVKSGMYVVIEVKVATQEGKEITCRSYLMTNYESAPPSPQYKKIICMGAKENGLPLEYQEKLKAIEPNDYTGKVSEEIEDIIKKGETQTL
UniProt Q9UET6: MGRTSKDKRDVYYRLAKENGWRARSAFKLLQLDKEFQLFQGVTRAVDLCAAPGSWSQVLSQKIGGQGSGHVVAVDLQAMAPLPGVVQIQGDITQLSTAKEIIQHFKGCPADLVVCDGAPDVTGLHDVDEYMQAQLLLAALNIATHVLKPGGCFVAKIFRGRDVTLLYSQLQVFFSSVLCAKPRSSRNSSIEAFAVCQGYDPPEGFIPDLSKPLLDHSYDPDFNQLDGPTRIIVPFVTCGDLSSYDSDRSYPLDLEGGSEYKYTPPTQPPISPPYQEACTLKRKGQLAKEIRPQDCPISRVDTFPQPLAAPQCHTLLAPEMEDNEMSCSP
UniProt Q7Z7M9: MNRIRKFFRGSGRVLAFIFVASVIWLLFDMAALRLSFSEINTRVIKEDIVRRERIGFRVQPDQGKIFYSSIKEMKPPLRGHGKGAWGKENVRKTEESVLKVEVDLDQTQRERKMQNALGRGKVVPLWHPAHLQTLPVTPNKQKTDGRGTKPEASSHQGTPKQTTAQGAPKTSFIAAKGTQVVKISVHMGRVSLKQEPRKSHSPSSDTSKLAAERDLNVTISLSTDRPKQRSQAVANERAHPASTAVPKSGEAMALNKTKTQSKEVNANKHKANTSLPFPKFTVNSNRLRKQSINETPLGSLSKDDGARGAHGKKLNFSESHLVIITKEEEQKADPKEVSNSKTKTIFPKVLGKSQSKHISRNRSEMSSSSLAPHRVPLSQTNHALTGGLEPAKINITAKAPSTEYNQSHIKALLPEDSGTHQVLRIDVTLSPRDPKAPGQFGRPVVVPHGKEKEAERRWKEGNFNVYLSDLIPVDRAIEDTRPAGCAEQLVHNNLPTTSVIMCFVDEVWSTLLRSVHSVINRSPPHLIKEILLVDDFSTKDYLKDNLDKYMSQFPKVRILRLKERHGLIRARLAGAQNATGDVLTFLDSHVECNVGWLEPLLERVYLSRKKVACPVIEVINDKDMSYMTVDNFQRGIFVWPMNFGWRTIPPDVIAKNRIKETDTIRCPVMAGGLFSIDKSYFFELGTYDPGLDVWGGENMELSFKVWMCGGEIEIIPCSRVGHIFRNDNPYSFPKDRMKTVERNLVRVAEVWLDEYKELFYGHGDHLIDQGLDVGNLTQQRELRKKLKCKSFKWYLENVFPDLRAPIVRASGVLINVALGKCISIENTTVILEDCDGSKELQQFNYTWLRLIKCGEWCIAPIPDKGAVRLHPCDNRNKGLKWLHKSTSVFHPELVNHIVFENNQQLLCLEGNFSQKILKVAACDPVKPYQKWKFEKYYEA
UniProt Q14697: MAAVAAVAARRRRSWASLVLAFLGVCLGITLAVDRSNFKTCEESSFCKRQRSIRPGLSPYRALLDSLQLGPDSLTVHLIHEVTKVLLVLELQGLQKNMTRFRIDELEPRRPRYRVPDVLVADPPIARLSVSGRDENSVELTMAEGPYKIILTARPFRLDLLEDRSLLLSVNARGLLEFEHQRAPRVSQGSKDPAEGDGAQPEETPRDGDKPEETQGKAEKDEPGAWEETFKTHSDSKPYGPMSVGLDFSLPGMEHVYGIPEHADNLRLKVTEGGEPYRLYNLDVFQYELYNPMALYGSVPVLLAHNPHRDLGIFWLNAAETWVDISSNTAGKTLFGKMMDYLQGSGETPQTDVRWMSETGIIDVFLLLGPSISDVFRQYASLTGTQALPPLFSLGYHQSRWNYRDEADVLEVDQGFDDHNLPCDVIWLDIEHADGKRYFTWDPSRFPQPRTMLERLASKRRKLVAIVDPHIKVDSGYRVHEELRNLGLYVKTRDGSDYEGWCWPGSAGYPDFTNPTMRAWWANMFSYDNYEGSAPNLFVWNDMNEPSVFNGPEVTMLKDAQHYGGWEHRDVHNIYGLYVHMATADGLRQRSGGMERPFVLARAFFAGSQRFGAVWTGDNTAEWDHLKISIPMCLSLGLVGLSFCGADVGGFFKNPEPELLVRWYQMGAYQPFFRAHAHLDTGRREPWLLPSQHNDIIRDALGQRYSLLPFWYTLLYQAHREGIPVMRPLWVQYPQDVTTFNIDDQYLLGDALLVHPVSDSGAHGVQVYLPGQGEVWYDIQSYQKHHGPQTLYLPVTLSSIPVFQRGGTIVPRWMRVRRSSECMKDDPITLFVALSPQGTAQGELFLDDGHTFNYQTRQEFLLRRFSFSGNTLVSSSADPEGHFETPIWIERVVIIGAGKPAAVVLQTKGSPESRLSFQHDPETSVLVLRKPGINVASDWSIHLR
UniProt P34059: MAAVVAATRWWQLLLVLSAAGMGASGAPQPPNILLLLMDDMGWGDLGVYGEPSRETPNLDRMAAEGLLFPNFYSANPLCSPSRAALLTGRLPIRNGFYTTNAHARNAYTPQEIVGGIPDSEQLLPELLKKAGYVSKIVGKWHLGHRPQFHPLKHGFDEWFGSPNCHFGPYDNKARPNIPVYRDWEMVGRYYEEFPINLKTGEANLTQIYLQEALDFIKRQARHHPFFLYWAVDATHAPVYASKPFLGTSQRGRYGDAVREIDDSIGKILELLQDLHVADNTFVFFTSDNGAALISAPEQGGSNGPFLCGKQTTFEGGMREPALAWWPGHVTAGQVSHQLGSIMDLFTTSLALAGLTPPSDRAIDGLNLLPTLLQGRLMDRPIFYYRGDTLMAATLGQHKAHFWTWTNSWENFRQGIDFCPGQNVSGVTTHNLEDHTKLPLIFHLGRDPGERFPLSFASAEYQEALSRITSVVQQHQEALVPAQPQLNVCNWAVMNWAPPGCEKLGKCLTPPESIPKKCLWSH
UniProt Q9H3K2: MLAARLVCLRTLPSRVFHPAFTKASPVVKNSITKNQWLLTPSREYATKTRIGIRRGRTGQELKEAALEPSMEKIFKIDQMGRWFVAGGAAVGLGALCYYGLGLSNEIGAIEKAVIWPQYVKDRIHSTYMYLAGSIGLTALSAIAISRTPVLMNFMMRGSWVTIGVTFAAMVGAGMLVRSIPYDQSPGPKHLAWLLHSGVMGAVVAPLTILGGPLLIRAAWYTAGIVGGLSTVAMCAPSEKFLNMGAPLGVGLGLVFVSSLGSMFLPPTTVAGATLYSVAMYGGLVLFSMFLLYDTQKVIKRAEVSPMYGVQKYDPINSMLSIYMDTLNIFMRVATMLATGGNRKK
UniProt Q96RP9: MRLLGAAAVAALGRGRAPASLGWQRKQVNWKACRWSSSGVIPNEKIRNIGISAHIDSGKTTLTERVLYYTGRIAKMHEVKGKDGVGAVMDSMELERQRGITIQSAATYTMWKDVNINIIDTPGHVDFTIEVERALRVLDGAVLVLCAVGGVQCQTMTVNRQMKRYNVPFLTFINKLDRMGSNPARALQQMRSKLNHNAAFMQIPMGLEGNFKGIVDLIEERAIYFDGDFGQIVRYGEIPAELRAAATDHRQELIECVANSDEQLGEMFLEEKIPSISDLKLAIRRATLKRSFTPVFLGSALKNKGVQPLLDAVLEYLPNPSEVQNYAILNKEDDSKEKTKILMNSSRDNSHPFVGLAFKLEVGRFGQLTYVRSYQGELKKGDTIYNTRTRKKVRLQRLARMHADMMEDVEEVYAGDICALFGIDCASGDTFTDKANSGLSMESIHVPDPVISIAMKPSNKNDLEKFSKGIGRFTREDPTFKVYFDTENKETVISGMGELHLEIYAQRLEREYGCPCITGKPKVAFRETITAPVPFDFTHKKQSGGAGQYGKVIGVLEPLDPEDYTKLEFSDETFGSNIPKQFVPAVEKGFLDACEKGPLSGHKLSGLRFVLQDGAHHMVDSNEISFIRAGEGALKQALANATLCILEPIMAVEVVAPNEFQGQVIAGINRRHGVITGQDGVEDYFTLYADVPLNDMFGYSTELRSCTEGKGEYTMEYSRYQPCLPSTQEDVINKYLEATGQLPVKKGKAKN

Compound: Cn1cc(-c2ccc3c(c2)CCN3C(=O)Cc2cccc(C(F)(F)F)c2)c2c(N)ncnc21
Test: log2 fold change, soluble protein after heating vs DMSO (PISA); higher = thermal stabilisation; K562 cells, 10 uM, 30 min; active = over 0.2 and 3.5 SD of the protein, either way, in both replicates (recomputed)
Procedure, shortened: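 For each measurement, 10 μM compound was applied for 30 min to K562 cells at 2×10^6 cells/mL. Aliquots were heated for 3 min across 48°C-58°C, pooled, and extracted in PBS with 0.5% NP-40 at 4°C; the supernatant after 21,000xg for 90 min was soluble protein. This was quantified by TMTpro 16plex LC-MS/MS with channel sums equalised, and thermal stability was reported relative to control samples from duplicates, on a log2 fold-change scale.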

log2 fold change, inactive:
GCAT isoform 2 (UniProt O75600) 0.002
GAR1 (UniProt Q9NY12) -0.135
GATAD2A isoform 3 (UniProt Q86YP4) 0.005
FXR1 (UniProt P51114) -0.207
FYCO1 isoform 4 (UniProt Q9BQS8) 0.028
G3BP2 (UniProt Q9UN86) -0.3
GALNT7 (UniProt Q86SF2) 0.034
GAN (UniProt Q9H2C0) 0.039
FRG1 (UniProt Q14331) -0.061
GGA3 (UniProt Q9NZ52) -0.028
GCHFR (UniProt P30047) 0.226
FUS (UniProt P35637) -0.113
GALK2 (UniProt Q01415) 0.004
GAMT (UniProt Q14353) 0.12
FTH1 (UniProt P02794) 0.024
GCLC (UniProt P48506) -0.002
FUBP1 (UniProt Q96AE4) 0.036
GAGE2A (UniProt Q6NT46) 0.011
FXR2 (UniProt P51116) -0.215
G3BP1 (UniProt Q13283) -0.107
GEMIN4 (UniProt P57678) -0.491
GGCT (UniProt O75223) 0.08
FTSJ1 (UniProt Q9UET6) 0.016
GALNT12 (UniProt Q8IXK2) -0.072
GALNT5 (UniProt Q7Z7M9) 0.002
GANAB isoform 2 (UniProt Q14697) -0.066
GGA1 isoform 6 (UniProt Q9UJY5) 0.032
GGH (UniProt Q92820) -0.022
GALE (UniProt Q14376) 0.06
GALNS (UniProt P34059) 0.001
GHITM (UniProt Q9H3K2) 0.006
G6PD isoform 2 (UniProt P11413) 0.07
GALM (UniProt Q96C23) 0.093
GFM1 (UniProt Q96RP9) 0.109

2 records drawn at random from the list so far, as already listed:
log2 fold change, inactive:
GCLC (UniProt P48506) -0.002
GAN (UniProt Q9H2C0) 0.039
